The other results are listed elsewhere or left out.
Tests used:
Experiment in all cases: log2 fold change, soluble protein after heating vs DMSO (PISA); higher = thermal stabilisation; K562 cells, 10 uM, 30 min; active = over 0.2 and 3.5 SD of the protein, either way, in both replicates (recomputed)
[1] = compound: CS(=O)(=O)c1ccc(-c2cnc(N)c(C(=O)Nc3ccccc3)n2)cc1
Method in brief: (§1)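 K562 cells at 2×10^6 cells/mL were treated for 30 min with 10 μM compound, and aliquots were heated for 3 min over 48°C-58°C before pooling. Extraction used PBS with 0.5% NP-40 at 4°C, and soluble protein was the supernatant after 21,000xg for 90 min, measured by TMTpro 16plex LC-MS/MS with channel sums equalised. Thermal stability values, relative to control samples and from duplicates, are log2 fold changes.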

Sequences of proteins named here, by UniProt entry; tags and fusion partners are left off. A change or cut given only in a name is not applied to a line headed by its entry.
UniProt O00329: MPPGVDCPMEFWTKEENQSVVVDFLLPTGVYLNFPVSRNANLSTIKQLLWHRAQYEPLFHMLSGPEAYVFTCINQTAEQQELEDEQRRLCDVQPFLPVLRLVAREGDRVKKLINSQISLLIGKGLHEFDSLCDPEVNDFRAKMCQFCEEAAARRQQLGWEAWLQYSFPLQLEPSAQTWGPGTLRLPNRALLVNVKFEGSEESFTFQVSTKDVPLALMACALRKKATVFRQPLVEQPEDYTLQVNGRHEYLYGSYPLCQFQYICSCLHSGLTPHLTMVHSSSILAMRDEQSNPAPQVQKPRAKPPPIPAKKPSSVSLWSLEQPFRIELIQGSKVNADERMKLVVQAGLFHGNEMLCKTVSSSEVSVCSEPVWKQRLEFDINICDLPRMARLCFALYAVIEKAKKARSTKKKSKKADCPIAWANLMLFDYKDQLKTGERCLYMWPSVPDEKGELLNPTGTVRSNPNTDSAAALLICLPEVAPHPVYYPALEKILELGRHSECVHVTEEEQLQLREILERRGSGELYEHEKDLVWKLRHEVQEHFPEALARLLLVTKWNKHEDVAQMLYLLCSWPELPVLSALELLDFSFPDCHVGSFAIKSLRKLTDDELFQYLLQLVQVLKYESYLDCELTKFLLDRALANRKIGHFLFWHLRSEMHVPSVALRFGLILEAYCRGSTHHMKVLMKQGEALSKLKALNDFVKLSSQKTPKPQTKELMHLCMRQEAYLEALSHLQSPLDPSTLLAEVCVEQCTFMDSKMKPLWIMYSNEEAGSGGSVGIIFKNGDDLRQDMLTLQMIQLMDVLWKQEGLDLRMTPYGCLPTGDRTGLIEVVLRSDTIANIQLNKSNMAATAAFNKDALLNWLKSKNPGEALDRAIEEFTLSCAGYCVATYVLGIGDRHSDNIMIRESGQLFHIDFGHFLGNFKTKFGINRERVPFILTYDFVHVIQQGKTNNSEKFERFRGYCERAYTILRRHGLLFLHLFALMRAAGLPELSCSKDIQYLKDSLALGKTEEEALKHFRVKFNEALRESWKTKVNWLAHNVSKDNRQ
UniProt P15735: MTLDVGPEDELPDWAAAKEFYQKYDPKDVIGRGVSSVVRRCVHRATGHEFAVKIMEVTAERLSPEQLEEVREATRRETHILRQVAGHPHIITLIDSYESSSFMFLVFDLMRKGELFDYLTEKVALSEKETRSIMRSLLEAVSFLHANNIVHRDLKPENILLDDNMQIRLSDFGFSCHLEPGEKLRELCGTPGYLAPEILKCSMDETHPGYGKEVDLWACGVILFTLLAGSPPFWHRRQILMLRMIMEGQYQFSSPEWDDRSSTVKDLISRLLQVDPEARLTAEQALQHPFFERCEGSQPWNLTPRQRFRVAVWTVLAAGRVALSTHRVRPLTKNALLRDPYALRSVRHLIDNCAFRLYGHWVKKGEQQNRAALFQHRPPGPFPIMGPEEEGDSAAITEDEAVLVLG
UniProt O43164: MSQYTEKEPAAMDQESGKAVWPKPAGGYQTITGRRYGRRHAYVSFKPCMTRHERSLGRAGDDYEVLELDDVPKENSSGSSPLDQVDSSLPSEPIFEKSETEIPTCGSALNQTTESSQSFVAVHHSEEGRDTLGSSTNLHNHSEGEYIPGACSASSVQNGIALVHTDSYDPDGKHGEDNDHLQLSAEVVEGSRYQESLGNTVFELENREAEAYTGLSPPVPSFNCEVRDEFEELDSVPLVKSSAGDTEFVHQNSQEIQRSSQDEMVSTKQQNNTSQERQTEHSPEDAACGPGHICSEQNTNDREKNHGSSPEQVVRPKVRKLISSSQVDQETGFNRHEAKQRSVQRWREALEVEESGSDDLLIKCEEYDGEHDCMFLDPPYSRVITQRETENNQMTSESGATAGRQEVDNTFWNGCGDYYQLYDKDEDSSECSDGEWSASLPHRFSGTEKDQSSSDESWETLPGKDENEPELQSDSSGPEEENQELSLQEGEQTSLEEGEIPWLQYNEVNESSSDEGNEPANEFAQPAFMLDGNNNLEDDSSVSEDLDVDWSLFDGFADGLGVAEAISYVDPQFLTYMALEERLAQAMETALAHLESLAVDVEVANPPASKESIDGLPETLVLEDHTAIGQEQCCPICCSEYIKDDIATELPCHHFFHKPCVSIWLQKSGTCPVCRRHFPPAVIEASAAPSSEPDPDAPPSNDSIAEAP
PIGBOS1, A0A0B4J2F0, UniProt A0A0B4J2F0, whole entry, looked up: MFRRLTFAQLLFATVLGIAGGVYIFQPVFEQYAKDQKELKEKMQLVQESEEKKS
UniProt O60925, whole entry, looked up: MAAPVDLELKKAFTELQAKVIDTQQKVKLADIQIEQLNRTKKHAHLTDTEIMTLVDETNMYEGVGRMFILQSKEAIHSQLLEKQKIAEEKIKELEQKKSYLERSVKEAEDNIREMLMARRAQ
UniProt P60673: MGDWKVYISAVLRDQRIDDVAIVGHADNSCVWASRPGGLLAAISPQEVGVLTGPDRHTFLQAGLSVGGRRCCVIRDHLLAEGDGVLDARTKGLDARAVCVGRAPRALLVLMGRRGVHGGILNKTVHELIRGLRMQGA
UniProt P19174: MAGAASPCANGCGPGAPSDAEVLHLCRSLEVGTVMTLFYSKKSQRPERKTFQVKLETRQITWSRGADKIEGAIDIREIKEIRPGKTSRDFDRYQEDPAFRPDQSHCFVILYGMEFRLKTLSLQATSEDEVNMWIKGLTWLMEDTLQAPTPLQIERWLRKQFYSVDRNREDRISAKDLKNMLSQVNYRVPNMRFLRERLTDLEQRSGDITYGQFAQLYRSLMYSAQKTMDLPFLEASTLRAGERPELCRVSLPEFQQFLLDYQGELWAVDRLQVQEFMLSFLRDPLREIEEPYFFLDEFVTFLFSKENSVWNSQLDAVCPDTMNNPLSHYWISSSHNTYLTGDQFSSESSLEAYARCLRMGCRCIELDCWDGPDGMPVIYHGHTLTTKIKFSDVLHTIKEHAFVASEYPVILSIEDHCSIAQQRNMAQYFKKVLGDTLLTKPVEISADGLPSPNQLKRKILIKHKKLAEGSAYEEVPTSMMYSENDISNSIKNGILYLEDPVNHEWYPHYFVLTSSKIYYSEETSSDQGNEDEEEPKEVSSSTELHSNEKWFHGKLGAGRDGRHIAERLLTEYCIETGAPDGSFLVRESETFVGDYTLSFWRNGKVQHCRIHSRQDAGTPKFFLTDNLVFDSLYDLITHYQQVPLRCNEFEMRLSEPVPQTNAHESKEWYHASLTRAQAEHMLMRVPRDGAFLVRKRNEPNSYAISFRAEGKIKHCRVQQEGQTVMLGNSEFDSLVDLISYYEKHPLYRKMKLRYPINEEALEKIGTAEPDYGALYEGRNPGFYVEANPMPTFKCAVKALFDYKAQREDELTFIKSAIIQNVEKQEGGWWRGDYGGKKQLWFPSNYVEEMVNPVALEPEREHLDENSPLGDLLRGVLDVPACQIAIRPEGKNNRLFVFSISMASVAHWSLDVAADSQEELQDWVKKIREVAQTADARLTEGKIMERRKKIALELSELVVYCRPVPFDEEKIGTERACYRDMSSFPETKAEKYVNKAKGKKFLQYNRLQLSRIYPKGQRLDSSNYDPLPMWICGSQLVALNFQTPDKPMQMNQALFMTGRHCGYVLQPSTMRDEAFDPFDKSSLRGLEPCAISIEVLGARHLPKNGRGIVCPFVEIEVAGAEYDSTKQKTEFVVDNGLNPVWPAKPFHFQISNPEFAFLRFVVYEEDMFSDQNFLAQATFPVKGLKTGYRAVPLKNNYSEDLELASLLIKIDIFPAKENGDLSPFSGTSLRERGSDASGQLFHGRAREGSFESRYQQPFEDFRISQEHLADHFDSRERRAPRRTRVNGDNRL
UniProt Q9HAU0: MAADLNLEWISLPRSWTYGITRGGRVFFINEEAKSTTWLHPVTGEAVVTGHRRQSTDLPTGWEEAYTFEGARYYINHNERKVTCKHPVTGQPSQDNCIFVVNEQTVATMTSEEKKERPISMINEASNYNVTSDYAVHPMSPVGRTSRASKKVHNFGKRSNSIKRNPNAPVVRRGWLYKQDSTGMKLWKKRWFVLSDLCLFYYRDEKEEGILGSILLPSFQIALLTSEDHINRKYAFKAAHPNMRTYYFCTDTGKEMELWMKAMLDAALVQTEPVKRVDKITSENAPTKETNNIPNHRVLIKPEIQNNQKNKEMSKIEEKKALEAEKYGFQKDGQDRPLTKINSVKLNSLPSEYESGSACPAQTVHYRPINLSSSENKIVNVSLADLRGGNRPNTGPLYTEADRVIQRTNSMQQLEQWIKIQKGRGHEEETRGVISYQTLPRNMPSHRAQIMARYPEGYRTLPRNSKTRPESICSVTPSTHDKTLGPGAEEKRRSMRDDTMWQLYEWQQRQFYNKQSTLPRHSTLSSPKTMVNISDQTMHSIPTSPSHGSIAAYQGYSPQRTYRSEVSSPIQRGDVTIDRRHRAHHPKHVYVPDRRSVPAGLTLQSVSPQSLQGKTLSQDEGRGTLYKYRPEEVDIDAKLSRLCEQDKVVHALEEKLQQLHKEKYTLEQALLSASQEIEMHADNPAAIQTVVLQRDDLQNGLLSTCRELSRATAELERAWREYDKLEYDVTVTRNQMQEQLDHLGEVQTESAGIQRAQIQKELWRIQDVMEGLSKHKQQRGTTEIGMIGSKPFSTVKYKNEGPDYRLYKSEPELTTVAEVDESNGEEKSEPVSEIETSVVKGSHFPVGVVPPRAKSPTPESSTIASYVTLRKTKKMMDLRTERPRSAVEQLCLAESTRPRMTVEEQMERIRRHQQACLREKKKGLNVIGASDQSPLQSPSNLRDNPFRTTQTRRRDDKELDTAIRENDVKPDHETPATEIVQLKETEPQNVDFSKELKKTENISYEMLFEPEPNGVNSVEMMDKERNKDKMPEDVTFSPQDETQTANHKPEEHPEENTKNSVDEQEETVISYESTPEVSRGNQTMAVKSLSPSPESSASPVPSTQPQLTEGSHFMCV
UniProt Q8TCD6: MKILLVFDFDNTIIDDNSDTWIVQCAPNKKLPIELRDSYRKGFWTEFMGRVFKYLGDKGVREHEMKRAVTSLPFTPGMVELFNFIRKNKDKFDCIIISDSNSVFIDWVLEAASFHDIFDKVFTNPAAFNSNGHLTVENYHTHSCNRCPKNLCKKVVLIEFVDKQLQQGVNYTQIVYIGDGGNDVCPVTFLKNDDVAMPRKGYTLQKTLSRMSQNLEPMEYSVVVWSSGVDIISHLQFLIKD
UniProt Q86UU1: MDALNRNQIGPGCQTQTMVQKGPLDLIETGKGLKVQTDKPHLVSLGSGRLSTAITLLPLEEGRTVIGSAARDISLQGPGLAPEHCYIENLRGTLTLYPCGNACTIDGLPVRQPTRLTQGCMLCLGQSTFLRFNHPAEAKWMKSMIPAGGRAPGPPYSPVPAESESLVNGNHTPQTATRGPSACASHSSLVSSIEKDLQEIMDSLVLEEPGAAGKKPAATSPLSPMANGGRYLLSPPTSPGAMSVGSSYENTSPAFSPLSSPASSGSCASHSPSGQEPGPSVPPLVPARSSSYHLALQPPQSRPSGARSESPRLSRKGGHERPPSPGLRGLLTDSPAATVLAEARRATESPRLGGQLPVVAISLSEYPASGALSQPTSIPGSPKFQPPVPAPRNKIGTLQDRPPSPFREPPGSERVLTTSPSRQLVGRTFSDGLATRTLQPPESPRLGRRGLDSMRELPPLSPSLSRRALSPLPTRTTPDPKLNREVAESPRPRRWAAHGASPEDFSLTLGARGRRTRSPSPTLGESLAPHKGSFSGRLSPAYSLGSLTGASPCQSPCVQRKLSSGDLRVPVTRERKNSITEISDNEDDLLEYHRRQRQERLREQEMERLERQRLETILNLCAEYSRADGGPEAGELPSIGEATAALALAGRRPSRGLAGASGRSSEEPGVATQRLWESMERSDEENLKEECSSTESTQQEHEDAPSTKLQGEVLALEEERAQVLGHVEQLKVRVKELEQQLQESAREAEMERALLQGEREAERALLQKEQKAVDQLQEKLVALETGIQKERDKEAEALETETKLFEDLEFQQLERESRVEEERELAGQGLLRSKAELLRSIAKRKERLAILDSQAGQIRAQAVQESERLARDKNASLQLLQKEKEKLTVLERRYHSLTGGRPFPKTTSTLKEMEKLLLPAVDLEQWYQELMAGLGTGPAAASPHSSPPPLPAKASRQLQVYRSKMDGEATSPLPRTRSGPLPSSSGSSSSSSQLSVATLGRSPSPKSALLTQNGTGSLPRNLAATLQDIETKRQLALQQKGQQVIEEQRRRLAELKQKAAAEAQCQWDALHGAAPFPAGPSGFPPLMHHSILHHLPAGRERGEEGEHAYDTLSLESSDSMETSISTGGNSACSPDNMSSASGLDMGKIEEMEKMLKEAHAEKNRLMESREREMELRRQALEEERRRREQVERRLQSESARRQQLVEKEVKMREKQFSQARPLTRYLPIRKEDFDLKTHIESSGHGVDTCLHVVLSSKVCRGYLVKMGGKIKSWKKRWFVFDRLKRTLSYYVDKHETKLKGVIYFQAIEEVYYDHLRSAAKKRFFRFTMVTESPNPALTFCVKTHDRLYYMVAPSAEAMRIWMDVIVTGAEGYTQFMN

crizotinib = compound: C[C@@H](Oc1cc(-c2cnn(C3CCNCC3)c2)cnc1N)c1c(Cl)ccc(F)c1Cl [crizotinib]
Method in brief: as §1

[2] = compound: C[C@@H]1COCCN1C2=NC(=NC(=C2)C3(CC3)S(=O)(=O)C)C4=C5C=CNC5=CC=C4
Method in brief: as §1

[3] = compound: C[C@H](C1=CC=C(C=C1)C(=O)NC2=C3C=CNC3=NC=C2)N
Method in brief: as §1

[4] = compound: Cc1cc(SCc2sc(-c3ccc(C(F)(F)F)cc3)nc2C)ccc1OCC(=O)O
Method in brief: as §1

doramapimod = compound: Cc1ccc(-n2nc(C(C)(C)C)cc2NC(=O)Nc2ccc(OCCN3CCOCC3)c3ccccc23)cc1 [doramapimod]
Method in brief: as §1

ispinesib = compound: Cc1ccc(C(=O)N(CCCN)[C@@H](c2nc3cc(Cl)ccc3c(=O)n2Cc2ccccc2)C(C)C)cc1 [ispinesib]
Method in brief: as §1

bafetinib = compound: Cc1ccc(NC(=O)c2ccc(CN3CC[C@H](N(C)C)C3)c(C(F)(F)F)c2)cc1Nc1nccc(-c2cncnc2)n1 [bafetinib]
Method in brief: as §1

[5] = compound: Cn1cc(-c2ccc3c(c2)CCN3C(=O)Cc2cccc(C(F)(F)F)c2)c2c(N)ncnc21
Method in brief: as §1

[6] = compound: Cn1cc(-c2ccc3nnc(C(F)(F)c4ccc5ncccc5c4)n3n2)cn1
Method in brief: as §1

tipifarnib = compound: Cn1cncc1[C@@](N)(c1ccc(Cl)cc1)c1ccc2c(c1)c(-c1cccc(Cl)c1)cc(=O)n2C [tipifarnib]
Method in brief: as §1

dasatinib = compound: Cc1nc(Nc2ncc(C(=O)Nc3c(C)cccc3Cl)s2)cc(N2CCN(CCO)CC2)n1 [dasatinib]
Method in brief: as §1

duvelisib = compound: C[C@H](Nc1ncnc2nc[nH]c12)c1cc2cccc(Cl)c2c(=O)n1-c1ccccc1 [duvelisib]
Method in brief: as §1

nilotinib = compound: Cc1cn(-c2cc(NC(=O)c3ccc(C)c(Nc4nccc(-c5cccnc5)n4)c3)cc(C(F)(F)F)c2)cn1 [nilotinib]
Method in brief: as §1

[7] = compound: Cc1nc(Nc2n[nH]c3c2CN(C(=O)N[C@H](CN(C)C)c2ccccc2)C3(C)C)c2sccc2n1
Method in brief: as §1

[8] = compound: Cc1ncc(-c2ccnc(Nc3ccc(S(C)(=O)=O)cc3)n2)n1C(C)C
Method in brief: as §1

gandotinib = compound: Cc1cc(Nc2cc(CN3CCOCC3)c3nc(C)c(Cc4ccc(Cl)cc4F)n3n2)n[nH]1 [gandotinib]
Method in brief: as §1

[9] = compound: Cc1cccc(CC(=O)N2CCc3c2ccc(-c2cn(C)c4ncnc(N)c24)c3F)n1
Method in brief: as §1

mubritinib = compound: FC(F)(F)c1ccc(/C=C/c2nc(COc3ccc(CCCCn4ccnn4)cc3)co2)cc1 [mubritinib]
Method in brief: as §1

tozasertib = compound: Cc1cc(Nc2cc(N3CCN(C)CC3)nc(Sc3ccc(NC(=O)C4CC4)cc3)n2)n[nH]1 [tozasertib]
Method in brief: as §1

Measured: log2 fold change

PIK3CD (UniProt O00329)
inactive: [1] -0.019 | crizotinib 0.009 | [2] 0.034 | [3] 0.14 | [4] -0.11 | doramapimod 0.042 | ispinesib -0.029 | bafetinib 0.033 | [5] -0.228 | [6] 0.074 | tipifarnib 0.031

PEX5 isoform 4 (UniProt P50542)
inactive: [1] -0.091 | [2] -0.016 | [3] 0.15 | [4] -0.047 | ispinesib -0.078 | dasatinib 0.139 | [5] 0.219 | [6] -0.078

PIGM (UniProt Q9H3S5)
inactive: [1] -0.026 | crizotinib -0.085 | [3] 0.325 | duvelisib -0.053 | [4] 0.117 | doramapimod -0.053 | bafetinib 0.007 | nilotinib 0.04 | [7] -0.02 | dasatinib 0.031 | [8] 0.003 | [5] -0.105

PHKG2 (UniProt P15735)
inactive: [1] 0.015 | crizotinib 0 | [2] -0.097 | [3] 0.053 | gandotinib -0.017 | [4] -0.006 | doramapimod 0.044 | ispinesib 0.018 | bafetinib -0.047 | [9] 0.044 | nilotinib -0.177 | dasatinib -0.306 | [8] 0.011 | [5] -0.024 | [6] -0.017 | tipifarnib -0.046 | mubritinib -0.127
active: [7] 0.321

PJA2 (UniProt O43164)
inactive: [1] 0.032 | crizotinib -0.042 | [2] -0.126 | [3] 0.091 | gandotinib 0.097 | [4] -0.118 | doramapimod 0.033 | ispinesib -0.098 | bafetinib -0.121 | [9] -0.072 | nilotinib 0.023 | [7] -0.021 | dasatinib 0.036 | [8] -0.04 | [5] -0.06 | [6] 0.008 | tipifarnib 0.071 | mubritinib 0.018

PIGBOS1, A0A0B4J2F0
inactive: [1] 0.115 | [2] 0.099 | [3] -0.029 | duvelisib 0.051 | gandotinib 0.02 | tozasertib -0.077 | [4] -0.298 | ispinesib 0.014 | bafetinib -0.105 | [9] -0.055 | nilotinib 0.003 | [7] -0.029 | dasatinib 0.107 | [8] -0.017 | [5] 0.073 | [6] 0.066 | tipifarnib 0.072 | mubritinib 0.027

PHF19 isoform 2 (UniProt Q5T6S3)
inactive: [1] -0.117 | crizotinib -0.09 | [2] 0.019 | duvelisib 0.167 | gandotinib 0.09 | tozasertib 0.039 | [4] 0.096 | doramapimod -0.099 | ispinesib -0.031 | bafetinib 0.351 | [9] -0.035 | nilotinib -0.009 | [7] 0.031 | dasatinib -0.066 | [8] -0.012 | [6] -0.063 | tipifarnib -0.214 | mubritinib 0.012

PFDN1 (UniProt O60925)
inactive: [1] 0.018 | crizotinib 0.069 | [2] 0.264 | [3] -0.115 | gandotinib 0.029 | [4] 0.081 | doramapimod 0.018 | ispinesib 0.277 | bafetinib 0.038 | [9] -0.041 | nilotinib 0.012 | [7] 0.026 | dasatinib 0.076 | [8] -0.023 | [5] 0.153 | [6] 0.328 | tipifarnib -0.061 | mubritinib 0.039

PFN3 (UniProt P60673)
inactive: [1] 0.22 | [2] -0.18 | [3] 0.118 | duvelisib 0.247 | gandotinib -0.363 | tozasertib -0.495 | [4] -0.086 | [9] -0.331 | dasatinib -0.394 | [5] 0.003 | tipifarnib -0.271 | mubritinib 0.002

PLCG1 isoform 2 (UniProt P19174)
active: crizotinib -0.412
inactive: [1] 0.016 | [2] -0.09 | [3] 0.16 | gandotinib 0.107 | [4] 0.161 | doramapimod 0.001 | ispinesib -0.178 | bafetinib -0.054 | [9] -0.08 | nilotinib -0.072 | [7] 0.079 | dasatinib -0.257 | [8] 0.024 | [5] 0.031 | [6] 0.005 | tipifarnib -0.144 | mubritinib 0.11

PFKM (UniProt F8VTQ3)
inactive: crizotinib -0.107 | gandotinib -0.688 | doramapimod 0.071 | bafetinib -0.041 | [9] -0.045 | tipifarnib 0.134

PLEKHA5 isoform 6 (UniProt Q9HAU0)
inactive: [2] -0.051 | [3] 0.303 | gandotinib 0.05 | tozasertib 0.154 | [9] 0.034 | [5] -0.262 | mubritinib -0.19

PHOSPHO2 (UniProt Q8TCD6)
inactive: crizotinib 0.058 | [3] -0.23 | duvelisib 0.145 | tozasertib 0.371 | [4] 0.089 | doramapimod 0.044 | ispinesib -0.14 | bafetinib 0.11 | dasatinib -0.127 | [5] 0.166 | [6] 0.247 | mubritinib -0.034

PHLDB1 isoform 2 (UniProt Q86UU1)
active: duvelisib -0.759
inactive: crizotinib -0.307 | [2] 0.058 | [3] -0.043 | gandotinib -0.281 | [4] 0.108 | doramapimod 0.032 | ispinesib -0.053 | bafetinib -0.112 | [9] 0.117 | nilotinib 0.136 | [7] -0.265 | dasatinib -0.073 | [8] -0.128 | [5] 0.061 | [6] 0.016 | tipifarnib 0.057 | mubritinib 0.14

From the supplement of paper PMC10849652
